Measurements as given in article PMC3841102, “Activation of Smurf E3 Ligase Promoted by Smoothened Regulates Hedgehog Signaling through Targeting Patched Turnover” (PLoS Biology, 2013).
Results are given in words; binding and its absence hold for the method and conditions named. For part of these data: In cells and extracts the contact can be indirect. Some results given as binding are weak or reduced against the parent protein; the word gives no strength. Where a sequence is shown, tags or fusion partners need not be part of it.

T1: full-length Drosophila Smurf (two-hybrid bait) (Drosophila) (UniProt Q9V853)
T1 sequence: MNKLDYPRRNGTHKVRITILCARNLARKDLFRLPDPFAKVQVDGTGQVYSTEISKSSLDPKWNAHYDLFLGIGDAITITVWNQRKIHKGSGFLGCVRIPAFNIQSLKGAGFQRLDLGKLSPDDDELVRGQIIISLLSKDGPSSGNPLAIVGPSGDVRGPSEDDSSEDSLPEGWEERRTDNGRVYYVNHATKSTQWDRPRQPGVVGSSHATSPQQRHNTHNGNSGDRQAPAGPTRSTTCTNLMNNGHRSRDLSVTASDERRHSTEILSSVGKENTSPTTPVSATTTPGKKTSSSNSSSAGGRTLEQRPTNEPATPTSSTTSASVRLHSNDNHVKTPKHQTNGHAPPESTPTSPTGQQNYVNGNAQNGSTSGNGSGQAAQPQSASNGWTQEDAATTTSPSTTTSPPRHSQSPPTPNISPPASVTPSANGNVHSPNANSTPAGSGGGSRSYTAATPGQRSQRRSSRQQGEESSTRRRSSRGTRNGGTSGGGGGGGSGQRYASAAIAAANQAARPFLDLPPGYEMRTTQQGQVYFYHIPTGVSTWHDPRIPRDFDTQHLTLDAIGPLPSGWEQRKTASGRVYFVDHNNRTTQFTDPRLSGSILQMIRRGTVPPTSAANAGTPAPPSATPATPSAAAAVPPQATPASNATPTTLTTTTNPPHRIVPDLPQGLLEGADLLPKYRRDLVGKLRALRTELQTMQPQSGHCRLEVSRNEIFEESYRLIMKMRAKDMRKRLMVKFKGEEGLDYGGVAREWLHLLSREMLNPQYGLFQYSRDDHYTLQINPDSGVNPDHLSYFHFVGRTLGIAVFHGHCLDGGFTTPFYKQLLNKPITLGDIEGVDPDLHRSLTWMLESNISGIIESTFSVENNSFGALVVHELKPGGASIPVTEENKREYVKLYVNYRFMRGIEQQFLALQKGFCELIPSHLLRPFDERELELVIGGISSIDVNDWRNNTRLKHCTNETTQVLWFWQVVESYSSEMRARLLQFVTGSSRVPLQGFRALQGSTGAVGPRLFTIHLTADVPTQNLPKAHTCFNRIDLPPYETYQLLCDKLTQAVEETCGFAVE

T2: Flag-tagged Smurf (Drosophila) (UniProt Q9V853)
T2 sequence: T1 sequence

B1: Ptc^CTD (two-hybrid fusion) (domain or fragment, UniProt P18502 1101-1286)
chain: ILLSMVGPEAELVPLEHPDRISTPSPLPVRSSKRSGKSYVVQGSRSSRGSCQKSHHHHHKDLNDPSLTTITEEPQSWKSSNSSIQMPNDWTYQPREQRPASYAAPPPAYHKAAAQQHHQHQGPPTTPPPPFPTAYPPELQSIVVQPEVTVETTHSDSNTTKVTATANIKVELAMPGRAVRSYNFTS
B2: Ptc-L1 (aa 1198-1286), two-hybrid prey clone (domain or fragment, UniProt P18502 1198-1286)
chain: RPASYAAPPPAYHKAAAQQHHQHQGPPTTPPPPFPTAYPPELQSIVVQPEVTVETTHSDSNTTKVTATANIKVELAMPGRAVRSYNFTS
B3: Ptc-B4/5 (aa 1174-1286), two-hybrid prey clone (domain or fragment, UniProt P18502 1174-1286)
chain: PQSWKSSNSSIQMPNDWTYQPREQRPASYAAPPPAYHKAAAQQHHQHQGPPTTPPPPFPTAYPPELQSIVVQPEVTVETTHSDSNTTKVTATANIKVELAMPGRAVRSYNFTS
B4: Ptc^CTD (C-terminal tail of Ptc) expressed in S2 cells (domain or fragment, Drosophila, UniProt P18502 1101-1286, looked up)
chain: B1 chain
notes: Patched (Ptc), Drosophila, C-terminal tail; also called C-tail of Ptc; Ptc C-tail; source: S2 cells, transfected, in lysate
B5: Smo^ΔN (556-1,036 a.a of Smo) (domain or fragment, UniProt P91682 556-1036)
chain: TPSSIETWKRYIRKKCGKEVVEEVKMPKHKVIAQTWAKRKDFEDKGRLSITLYNTHTDPVGLNFDVNDLNSSETNDISSTWAAYLPQCVKRRMALTGAATGNSSSHGPRKNSLDSEISVSVRHVSVESRRNSVDSQVSVKIAEMKTKVASRSRGKHGGSSSNRRTQRRRDYIAAATGKSSRRRESSTSVESQVIALKKTTYPNASHKVGVFAHHSSKKQHNYTSSMKRRTANAGLDPSILNEFLQKNGDFIFPFLQNQDMSSSSEEDNSRASQKIQDLNVVVKQQEISEDDHDGIKIEELPNSKQVALENFLKNIKKSNESNSNRHSRNSARSQSKKSQKRHLKNPAADLDFRKDCVKYRSNDSLSCSSEELDVALDVGSLLNSSFSGISMGKPHSRNSKTSCDVGIQANPFELVPSYGEDELQQAMRLLNAASRQRTEAANEDFGGTELQGLLGHSHRHQREPTFMSESDKLKMLLLPSK
B6: Smoothened (Smo), tagged, in S2 cells (receptor, UniProt P91682 32-1036)
chain: SSAKFGSTTPASAQQSDVELEPINGTLNYRLYAKKGRDDKPWFDGLDSRHIQCVRRARCYPTSNATNTCFGSKLPYELSSLDLTDFHTEKELNDKLNDYYALKHVPKCWAAIQPFLCAVFKPKCEKINGEDMVYLPSYEMCRITMEPCRILYNTTFFPKFLRCNETLFPTKCTNGARGMKFNGTGQCLSPLVPTDTSASYYPGIEGCGVRCKDPLYTDDEHRQIHKLIGWAGSICLLSNLFVVSTFFIDWKNANKYPAVIVFYINLCFLIACVGWLLQFTSGSREDIVCRKDGTLRHSEPTAGENLSCIVIFVLVYYFLTAGMVWFVFLTYAWHWRAMGHVQDRIDKKGSYFHLVAWSLPLVLTITTMAFSEVDGNSIVGICFVGYINHSMRAGLLLGPLCGVILIGGYFITRGMVMLFGLKHFANDIKSTSASNKIHLIIMRMGVCALLTLVFILVAIACHVTEFRHADEWAQSFRQFIICKISSVFEEKSSCRIENRPSVGVLQLHLLCLFSSGIVMSTWCWTPSSIETWKRYIRKKCGKEVVEEVKMPKHKVIAQTWAKRKDFEDKGRLSITLYNTHTDPVGLNFDVNDLNSSETNDISSTWAAYLPQCVKRRMALTGAATGNSSSHGPRKNSLDSEISVSVRHVSVESRRNSVDSQVSVKIAEMKTKVASRSRGKHGGSSSNRRTQRRRDYIAAATGKSSRRRESSTSVESQVIALKKTTYPNASHKVGVFAHHSSKKQHNYTSSMKRRTANAGLDPSILNEFLQKNGDFIFPFLQNQDMSSSSEEDNSRASQKIQDLNVVVKQQEISEDDHDGIKIEELPNSKQVALENFLKNIKKSNESNSNRHSRNSARSQSKKSQKRHLKNPAADLDFRKDCVKYRSNDSLSCSSEELDVALDVGSLLNSSFSGISMGKPHSRNSKTSCDVGIQANPFELVPSYGEDELQQAMRLLNAASRQRTEAANEDFGGTELQGLLGHSHRHQREPTFMSESDKLKMLLLPSK

biological target: T1, full-length Drosophila Smurf (two-hybrid bait) (Drosophila); experiment: two-hybrid; AH109 yeast; bait vector pGBKT7, prey vector pACT2; growth on permissive (-Leu/-Trp) and restrictive (-Ade/-His/-Leu/-Trp) medium

binding, binds:
B1
B2
B3

biological target: T2, Flag-tagged Smurf (Drosophila); experiment: co-IP; transfected S2 cells, lysates after 48 h; anti-Flag M2 affinity gel or anti-Myc affinity gel; NaCl adjusted to 500 mM, washes with 500 mM NaCl; Western blot; for Smo with Smurf (Figure 5C,D) cells treated with Hh medium for 12 h

binding, binds:
B4
B5
B6
